Assay results as given in the supplement of paper PMC11264405.

How the values were obtained:
Experiment in all cases: minimum inhibitory concentration
fidaxomicin = compound: CCc1c(Cl)c(O)c(Cl)c(O)c1C(=O)O[C@H]1[C@H](O)[C@H](OC)[C@H](OC/C2=C\C=C\C[C@H](O)/C(C)=C/[C@H](CC)[C@@H](O[C@@H]3OC(C)(C)[C@@H](OC(=O)C(C)C)[C@H](O)[C@@H]3O)/C(C)=C/C(C)=C/C[C@@H]([C@@H](C)O)OC2=O)O[C@@H]1C [fidaxomicin]
rifampicin = compound: CO[C@H]1/C=C/O[C@@]2(C)Oc3c(C)c(O)c4c(O)c(c(/C=N/N5CCN(C)CC5)c(O)c4c3C2=O)NC(=O)/C(C)=C\C=C\[C@H](C)[C@H](O)[C@@H](C)[C@@H](O)[C@@H](C)[C@H](OC(C)=O)[C@@H]1C [rifampicin]
tigecycline = compound: CN(C)c1cc(NC(=O)CNC(C)(C)C)c(O)c2c1C[C@H]1C[C@H]3[C@H](N(C)C)C(O)=C(C(N)=O)C(=O)[C@@]3(O)C(O)=C1C2=O [tigecycline]
imipenem = compound: C[C@@H](O)[C@H]1C(=O)N2C(C(=O)O)=C(SCCNC=N)C[C@H]12 [imipenem]
metronidazole = compound: Cc1ncc([N+](=O)[O-])n1CCO [metronidazole]
meropenem = compound: C[C@@H](O)[C@H]1C(=O)N2C(C(=O)O)=C(S[C@@H]3CN[C@H](C(=O)N(C)C)C3)[C@H](C)[C@H]12 [meropenem]
linezolid = compound: CC(=O)NC[C@H]1CN(c2ccc(N3CCOCC3)c(F)c2)C(=O)O1 [linezolid]
clindamycin = compound: CCC[C@@H]1C[C@@H](C(=O)N[C@@H]([C@H]2O[C@H](SC)[C@H](O)[C@@H](O)[C@H]2O)[C@H](C)Cl)N(C)C1 [clindamycin]
vancomycin = compound: CN[C@H](CC(C)C)C(=O)N[C@H]1C(=O)N[C@@H](CC(N)=O)C(=O)N[C@H]2C(=O)N[C@H]3C(=O)N[C@H](C(=O)N[C@H](C(=O)O)c4cc(O)cc(O)c4-c4cc3ccc4O)[C@H](O)c3ccc(c(Cl)c3)Oc3cc2cc(c3O[C@@H]2O[C@H](CO)[C@@H](O)[C@H](O)[C@H]2O[C@H]2C[C@](C)(N)[C@H](O)[C@H](C)O2)Oc2ccc(cc2Cl)[C@H]1O [vancomycin]

Row | Test System | minimum inhibitory concentration (fidaxomicin) | minimum inhibitory concentration (rifampicin) | minimum inhibitory concentration (tigecycline) | minimum inhibitory concentration (imipenem) | minimum inhibitory concentration (metronidazole) | minimum inhibitory concentration (meropenem) | minimum inhibitory concentration (linezolid) | minimum inhibitory concentration (clindamycin) | minimum inhibitory concentration (vancomycin)
1 | Clostridioides difficile PCR ribotype 176 isolate #228 (European region: East, country: Slovakia, isolate source: Human, ribotype: 176) | 0.06 µg/mL | < 0.001 µg/mL | < 0.03 µg/mL | 8 µg/mL | 2 µg/mL | 2 µg/mL | 2 µg/mL | > 128 µg/mL | 0.5 µg/mL
2 | Clostridioides difficile PCR ribotype 181 isolate #229 (European region: East, country: Romania, isolate source: Human, ribotype: 181) | 0.03 µg/mL | > 32 µg/mL | < 0.03 µg/mL | 4 µg/mL | 1 µg/mL | 4 µg/mL | 1 µg/mL | 2 µg/mL | 0.5 µg/mL
3 | Clostridioides difficile PCR ribotype 181 isolate #230 (European region: East, country: Romania, isolate source: Human, ribotype: 181) | 0.03 µg/mL | > 32 µg/mL | < 0.03 µg/mL | 8 µg/mL | 1 µg/mL | 4 µg/mL | 1 µg/mL | 16 µg/mL | 0.5 µg/mL
4 | Clostridioides difficile PCR ribotype 181 isolate #231 (European region: East, country: Romania, isolate source: Human, ribotype: 181) | 0.03 µg/mL | < 0.001 µg/mL | < 0.03 µg/mL | 4 µg/mL | 1 µg/mL | 4 µg/mL | 2 µg/mL | 32 µg/mL | 0.5 µg/mL
5 | Clostridioides difficile PCR ribotype 181 isolate #232 (European region: East, country: Romania, isolate source: Human, ribotype: 181) | 0.03 µg/mL | > 32 µg/mL | < 0.03 µg/mL | 4 µg/mL | 2 µg/mL | 4 µg/mL | 2 µg/mL | 8 µg/mL | 0.5 µg/mL
6 | Clostridioides difficile PCR ribotype 181 isolate #233 (European region: East, country: Romania, isolate source: Human, ribotype: 181) | 0.03 µg/mL | > 32 µg/mL | < 0.03 µg/mL | 8 µg/mL | 1 µg/mL | 4 µg/mL | 2 µg/mL | 1 µg/mL | 0.5 µg/mL
7 | Clostridioides difficile PCR ribotype 181 isolate #234 (European region: East, country: Romania, isolate source: Human, ribotype: 181) | 0.03 µg/mL | > 32 µg/mL | < 0.03 µg/mL | 4 µg/mL | 1 µg/mL | 4 µg/mL | 2 µg/mL | 0.25 µg/mL | 0.5 µg/mL
8 | Clostridioides difficile PCR ribotype 181 isolate #235 (European region: East, country: Romania, isolate source: Human, ribotype: 181) | 0.03 µg/mL | > 32 µg/mL | < 0.03 µg/mL | 4 µg/mL | 0.5 µg/mL | 4 µg/mL | 1 µg/mL | 2 µg/mL | 0.5 µg/mL
9 | Clostridioides difficile PCR ribotype 181 isolate #236 (European region: East, country: Romania, isolate source: Human, ribotype: 181) | 0.008 µg/mL | > 32 µg/mL | < 0.03 µg/mL | 4 µg/mL | 2 µg/mL | 4 µg/mL | 2 µg/mL | > 128 µg/mL | 0.5 µg/mL
10 | Clostridioides difficile PCR ribotype 181 isolate #237 (European region: East, country: Romania, isolate source: Human, ribotype: 181) | 0.03 µg/mL | > 32 µg/mL | < 0.03 µg/mL | 4 µg/mL | 1 µg/mL | 4 µg/mL | 2 µg/mL | 8 µg/mL | 0.5 µg/mL
11 | Clostridioides difficile PCR ribotype 181 isolate #238 (European region: East, country: Romania, isolate source: Human, ribotype: 181) | 0.03 µg/mL | > 32 µg/mL | < 0.03 µg/mL | 4 µg/mL | 1 µg/mL | 4 µg/mL | 2 µg/mL | 8 µg/mL | 0.5 µg/mL
12 | Clostridioides difficile PCR ribotype 181 isolate #239 (European region: East, country: Romania, isolate source: Human, ribotype: 181) | 0.03 µg/mL | > 32 µg/mL | < 0.03 µg/mL | 8 µg/mL | 1 µg/mL | 4 µg/mL | 2 µg/mL | 8 µg/mL | 0.5 µg/mL
13 | Clostridioides difficile PCR ribotype 181 isolate #240 (European region: East, country: Romania, isolate source: Human, ribotype: 181) | 0.03 µg/mL | > 32 µg/mL | < 0.03 µg/mL | 8 µg/mL | 1 µg/mL | 4 µg/mL | 2 µg/mL | 16 µg/mL | 0.5 µg/mL

Rewritten as a markdown table: entries from further up

| Row | Test System | minimum inhibitory concentration (fidaxomicin) | minimum inhibitory concentration (rifampicin) | minimum inhibitory concentration (tigecycline) | minimum inhibitory concentration (imipenem) | minimum inhibitory concentration (metronidazole) | minimum inhibitory concentration (meropenem) | minimum inhibitory concentration (linezolid) | minimum inhibitory concentration (clindamycin) | minimum inhibitory concentration (vancomycin) |
| --- | --- | --- | --- | --- | --- | --- | --- | --- | --- | --- |
| 11 | Clostridioides difficile PCR ribotype 181 isolate #238 (European region: East, country: Romania, isolate source: Human, ribotype: 181) | 0.03 µg/mL | > 32 µg/mL | < 0.03 µg/mL | 4 µg/mL | 1 µg/mL | 4 µg/mL | 2 µg/mL | 8 µg/mL | 0.5 µg/mL |
| 12 | Clostridioides difficile PCR ribotype 181 isolate #239 (European region: East, country: Romania, isolate source: Human, ribotype: 181) | 0.03 µg/mL | > 32 µg/mL | < 0.03 µg/mL | 8 µg/mL | 1 µg/mL | 4 µg/mL | 2 µg/mL | 8 µg/mL | 0.5 µg/mL |
